From article PMC10470313, “Developing a peptide to disrupt cohesin head domain interactions” (iScience, 2023)
These are yes or no findings as the source states them, for the method shown. Some results given as binding are weak or reduced against the parent protein; the word gives no strength. Tags and fused reporters may be left off the sequences shown.

Molecular target: T1, Smc3-GFP (S. cerevisiae) (UniProt P47037)
T1 sequence: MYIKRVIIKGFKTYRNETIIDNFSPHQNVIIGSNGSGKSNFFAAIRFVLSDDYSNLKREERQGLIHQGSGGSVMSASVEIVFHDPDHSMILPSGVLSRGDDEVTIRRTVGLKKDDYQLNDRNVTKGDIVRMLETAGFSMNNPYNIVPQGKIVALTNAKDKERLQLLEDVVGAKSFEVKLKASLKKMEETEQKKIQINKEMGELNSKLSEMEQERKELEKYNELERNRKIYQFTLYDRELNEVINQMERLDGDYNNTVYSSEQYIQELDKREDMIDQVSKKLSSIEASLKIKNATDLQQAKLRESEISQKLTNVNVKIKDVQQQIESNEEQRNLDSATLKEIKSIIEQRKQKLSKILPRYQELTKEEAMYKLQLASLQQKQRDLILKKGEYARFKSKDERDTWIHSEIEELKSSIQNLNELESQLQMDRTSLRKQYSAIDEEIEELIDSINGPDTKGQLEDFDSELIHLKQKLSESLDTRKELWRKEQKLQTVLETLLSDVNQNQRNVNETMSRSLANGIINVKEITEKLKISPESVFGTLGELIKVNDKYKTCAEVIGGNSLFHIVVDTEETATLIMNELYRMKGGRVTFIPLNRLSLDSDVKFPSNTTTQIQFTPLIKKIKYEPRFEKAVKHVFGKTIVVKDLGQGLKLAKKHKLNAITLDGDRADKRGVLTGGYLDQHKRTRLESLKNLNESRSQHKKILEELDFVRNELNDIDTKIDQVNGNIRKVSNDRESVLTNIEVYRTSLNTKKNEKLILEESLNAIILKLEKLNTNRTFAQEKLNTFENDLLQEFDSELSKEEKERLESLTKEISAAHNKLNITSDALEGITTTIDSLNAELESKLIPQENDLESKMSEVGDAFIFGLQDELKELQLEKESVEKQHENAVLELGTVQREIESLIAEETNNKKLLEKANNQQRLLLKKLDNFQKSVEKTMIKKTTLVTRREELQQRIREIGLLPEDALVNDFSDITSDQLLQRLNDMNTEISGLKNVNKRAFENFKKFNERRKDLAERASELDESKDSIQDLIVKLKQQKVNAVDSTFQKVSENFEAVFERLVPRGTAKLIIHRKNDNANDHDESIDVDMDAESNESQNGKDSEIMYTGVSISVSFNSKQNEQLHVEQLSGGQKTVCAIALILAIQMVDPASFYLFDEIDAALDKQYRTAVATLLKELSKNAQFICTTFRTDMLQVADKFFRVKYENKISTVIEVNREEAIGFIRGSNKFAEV
Test: MST; binding mode (no constants); yeast protein extract with Smc3-GFP (20 nM total cellular protein) mixed with CIP3-TAT (5 uM in the methods, 10 uM in the results); MST buffer with 0.05% Tween-20; Monolith NT.115; only the binder purified

B1: CIP3-TAT (peptide)
peptide: KRFKDMEYLSGGEKTGGYGRKKRRQRRR
With B1 as the binder, how does the binding read?
The binding was “binds”.
